Test results from article PMC7819943, “Rice protein-binding microarrays: a tool to detect cis-acting elements near promoter regions in rice”.
The other results are listed elsewhere or left out.

By UniProt entry, the sequences of proteins in these tests, tags left out.
UniProt Q0JBA9, entry or part of it: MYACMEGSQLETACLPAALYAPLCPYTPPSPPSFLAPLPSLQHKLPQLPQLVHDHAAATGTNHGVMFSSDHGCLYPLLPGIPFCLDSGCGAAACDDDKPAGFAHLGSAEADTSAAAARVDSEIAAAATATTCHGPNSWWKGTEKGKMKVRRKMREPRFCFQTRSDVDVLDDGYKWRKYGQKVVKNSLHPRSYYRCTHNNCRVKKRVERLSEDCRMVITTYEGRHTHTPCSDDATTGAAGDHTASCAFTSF

These sequences were tested against OsWRKY34 (Oryza sativa, UniProt Q0JBA9 1-250) (assay: protein-binding microarray (RPBM); PBS, 2% BSA, 51.3 ng/ul salmon testes DNA, 50 uM zinc acetate, 200 nM TF, 25 C, 1 h; high values mean tight binding). Conditions: protein: recombinant; tags: N-terminal polyhistidine and DsRed monomer fusion (pET32a); label: CyDye5-dUTP incorporated in the synthesized complementary strand; 3' TTTTT single-stranded linker to array surface; dsDNA, one strand shown.
Outline: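 Binding signal is defined as the fluorescence intensity of each feature in arbitrary units, read on an Axon 4000B scanner. Transcription factors with N-terminal polyhistidine and DsRed fusions came from E. coli BL21-CodonPlus and were purified on Ni–NTA. They were incubated at 200 nM for 1 h at 25 °C on a custom Agilent array that had been made double-stranded with Cy5-dUTP, with 50 µM zinc acetate present, and the array was washed.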
In the case of “GTGTATCAGCATCATCGTCGTACTAGTGTCCATTTAATTACGGAGTCACCTAGTGCAG”, the binding signal is reported as 8410 fluorescence intensity (a.u.). In the case of “CCAATTTGACTCTGATTTTGTCACTCTGCTTATTTGCCCACGGAGTCACCTAGTGCAG”, the binding signal is reported as 9340 fluorescence intensity (a.u.). In the case of “CCTACCGAGCTGCCGCCGCCTCACGTACGCCAACAACGTTCGGAGTCACCTAGTGCAG”, the binding signal is reported as 9190 fluorescence intensity (a.u.). In the case of “TCTGCGACGCCGTATCTCTGTCCATCTGTCGTCTTGAAAACGGAGTCACCTAGTGCAG”, the binding signal is reported as 9340 fluorescence intensity (a.u.). “GGAGAGGAGAGGAAAAATTCTACATGTCACATATTACGTCCGGAGTCACCTAGTGCAG” was tested, and the binding signal was 8380 fluorescence intensity (a.u.). In the case of “ATCTCTTACTCCGCATGCATATGGTCCTGTTCAAAAATGTCGGAGTCACCTAGTGCAG”, the binding signal is reported as 8030 fluorescence intensity (a.u.). In the case of “GGTTGTAACAACTTGGTATCAGTTGCTTTCGGTCCTGTTTCGGAGTCACCTAGTGCAG”, the binding signal is reported as 8420 fluorescence intensity (a.u.). “ACTTCTCTCTCCCATCCTCTCCTGATATTTTAACTTTCACCGGAGTCACCTAGTGCAG” was tested, and the binding signal was 8940 fluorescence intensity (a.u.). For “GTTATATCATATTAGGGGCATTTCTCATAGACAATTGTCACGGAGTCACCTAGTGCAG”, the binding signal was 11200 fluorescence intensity (a.u.). In the case of “CTCCACTCCAACTCCACCGTTGCTCCCACCAAACCTCCCACGGAGTCACCTAGTGCAG”, the binding signal is reported as 8550 fluorescence intensity (a.u.). With “GTGGGGATTGGAGTTGGAAAAGTTTTACTTTCACAGTGATCGGAGTCACCTAGTGCAG” the binding signal was 8090 fluorescence intensity (a.u.). For “TTTCCAACCTGATCGGGTGCTGCCTTTTCATTCTTCCCTCCGGAGTCACCTAGTGCAG”, the binding signal was 8430 fluorescence intensity (a.u.). In the case of “CTTCGCTGCCAGTCACAACACCCATCTTCGTCGCCGCCCACGGAGTCACCTAGTGCAG”, the binding signal is reported as 8190 fluorescence intensity (a.u.). “CTATCAGAATTCAGAGCACTGGGGTTTTGCAACTATTTATCGGAGTCACCTAGTGCAG” was tested, and the binding signal was 10600 fluorescence intensity (a.u.). With “ACTGGTTTTCTTTTTAATCAACTCTCGTTTCATAAACGGGCGGAGTCACCTAGTGCAG” the binding signal was 8220 fluorescence intensity (a.u.). For “GCTCGGTTTGGAGAGGGGTTTTTGGTTTCTCGGCACCACGCGGAGTCACCTAGTGCAG”, the binding signal was 8570 fluorescence intensity (a.u.). For “CCTTCCATCACCATCTTTGCACATCATCTCTACAGTGCATCGGAGTCACCTAGTGCAG”, the binding signal was 10600 fluorescence intensity (a.u.). In the case of “ACCGCCTCTCTCTCTATCTCCCCGTCGCTAGCTACCAGCACGGAGTCACCTAGTGCAG”, the binding signal is reported as 8100 fluorescence intensity (a.u.). For “CTCTCTTCCATTCCGCCTCGCCTCGCCTCGCCTCTCGCGGCGGAGTCACCTAGTGCAG”, the binding signal was 8360 fluorescence intensity (a.u.). In the case of “AGATCCACCCGCACCTGCTCCAAATCGCGCCTCTCTTGTGCGGAGTCACCTAGTGCAG”, the binding signal is reported as 8800 fluorescence intensity (a.u.). With “TGCGCCATTTTTTCTTTTTCTTTTTCGTTTTGTTTTTTTTCGGAGTCACCTAGTGCAG” the binding signal was 16300 fluorescence intensity (a.u.). In the case of “AGTAAGAGATCTCAAATTGATATGGGTTCTTGTTTTATATCGGAGTCACCTAGTGCAG”, the binding signal is reported as 8150 fluorescence intensity (a.u.). With “CGCATGCACACTTTAATCTATACCAACGGAAAATTTTCCACGGAGTCACCTAGTGCAG” the binding signal was 8390 fluorescence intensity (a.u.). For “AATATTCCTTACTTTTTAATTTCGAATTTCAGCTATTTCTCGGAGTCACCTAGTGCAG”, the binding signal was 10500 fluorescence intensity (a.u.). “AAGGAGGCGTTATACCCAGTTTTCCGGTTGAGGGATGTTACGGAGTCACCTAGTGCAG” was tested, and the binding signal was 10900 fluorescence intensity (a.u.). For “AATCTTTCTATCGTATAAGCATGTTGCATTTAGTGCACTTCGGAGTCACCTAGTGCAG”, the binding signal was 9800 fluorescence intensity (a.u.). “ATCGGGTGATAGTGCGCAGGGGTGATCAGATTAGGTGGCCCGGAGTCACCTAGTGCAG” was tested, and the binding signal was 8240 fluorescence intensity (a.u.). With “AACTGAAAGTTCATTCTCTGCGCGGTCTGGGTCTACTCCTCGGAGTCACCTAGTGCAG” the binding signal was 8830 fluorescence intensity (a.u.). In the case of “CTTAGCCCAACTCAACATTTTGCTGTCTCGCGTTTCCGCGCGGAGTCACCTAGTGCAG”, the binding signal is reported as 11000 fluorescence intensity (a.u.). In the case of “TCATTCATATACCATCAATGTTTCATTTCCATTTTCCGAACGGAGTCACCTAGTGCAG”, the binding signal is reported as 10800 fluorescence intensity (a.u.). With “TGTTGTCGCTGTTCCCGTGCTGCTCCTGTCTCTCGCAGGGCGGAGTCACCTAGTGCAG” the binding signal was 9070 fluorescence intensity (a.u.). “ATTTCTGCCTCATTGACAAGAAGGGCCCACATCCATCGCACGGAGTCACCTAGTGCAG” was tested, and the binding signal was 8440 fluorescence intensity (a.u.). “GGGAAATTTAACTATTTGTCACATTTAGGTTTTTCAATTACGGAGTCACCTAGTGCAG” was tested, and the binding signal was 8270 fluorescence intensity (a.u.). In the case of “TTCTTTTGAGTTTATTTCTCTTATCTGATTCCTATGTTTTCGGAGTCACCTAGTGCAG”, the binding signal is reported as 9990 fluorescence intensity (a.u.). For “TCAACACCACCATCGCCGTCGTGTTCTCCGCGCTCGCTGTCGGAGTCACCTAGTGCAG”, the binding signal was 10100 fluorescence intensity (a.u.). “TCCGCTTGCATATGGCACAGAAACACACTGACACGCATTCCGGAGTCACCTAGTGCAG” was tested, and the binding signal was 9010 fluorescence intensity (a.u.). With “TCTTTCTCTCTCTTGCTGCCGTTGAGGGATTTGGGGTGAACGGAGTCACCTAGTGCAG” the binding signal was 10000 fluorescence intensity (a.u.). “TCCCAGATCTTACGTCGTTTACTTTTTTTAAACATATTTACGGAGTCACCTAGTGCAG” was tested, and the binding signal was 10300 fluorescence intensity (a.u.). In the case of “CTTCACTTTTCCACGGTATCCCGTGAGCTAGCTGCCCTCACGGAGTCACCTAGTGCAG”, the binding signal is reported as 8640 fluorescence intensity (a.u.). “TAGACGTAGATGCGTGGTGTGGCCGTAATTTTTTCTTTTTCGGAGTCACCTAGTGCAG” was tested, and the binding signal was 9920 fluorescence intensity (a.u.). For “GTCATTGATTATTTGTTGTAGCACCTTAAATATTGGTTTTCGGAGTCACCTAGTGCAG”, the binding signal was 9060 fluorescence intensity (a.u.). For “CACCAAGCATGTCCATGACCTTGCACTCTTGGCTCACTCGCGGAGTCACCTAGTGCAG”, the binding signal was 8030 fluorescence intensity (a.u.).
